Results published in patent US20240374644A1.
No constants are given. Whether binding was seen depends on the method and setting. A result given as binding can be weak or reduced; the word gives no strength.

Target: CD8 protein
Assay: ELISA, wells coated with 1 ug/ml protein, anti-GST detection

binding: binds
B1: CD3 BiTE (K3Bi), anti-HERV-K 6H5 scFv linked to anti-CD3 scFv (bispecific antibody, not shown: a dimerising Fc or GST)
chain: TGMDIELTQSPSSLAVSLGQRATISCRASESVDSHGTSLMHWYQQKPGQPPKFLIYRASNLESGIPARFSGSGSRTDFTLTINPVETDDVAIYYCQQSNEDPPTFGGGTKLELKEGGGSGGGGSGGGGSAQVKLQQSGPDLVKPGASVKISCKASGYSFTGYYMHWVKQSHGKSLEWIGRVNPNSGGTSYNQKFKDKAILTVDKSSSTAYMELRSLTSEDSAVYYCARSKGNYFYAMDYWGQGTTVTVSSSGGGGSEVQLVESGGGLVQPGGSLRLSCAASGYSFTGYTMNWVRQAPGKGLEWVALINPYKGVSTYNQKFKDRFTISVDKSKNTAYLQMNSLRAEDTAVYYCARSGYYGDSDWYFDVWGQGTLVTVSSGGGGSGGGGSGGGGSDIQMTQSPSSLSASVGDRVTITCRASQDIRNYLNWYQQKPGKAPKLLIYYTSRLESGVPSRFSGSGSGTDYTLTISSLQPEDFATYYCQQGNTLPWTFGQGTKVEIKEQKLISEEDLDYKDDDDKEF
